According to patent publication US6033882A, “Chiral synthesis of 2-hydroxy carboxylic acids with a dehydrogenase” (Genzyme Corporation, priority 1994, dated 2000):
Read-outs that look alike come from different tables or passages of the source. The name of at least one read-out is uncertain.

Molecular target: T1, Lactobacillus delbrueckii ssp. Bulgaricus R-2-hydroxy acid dehydrogenase (LB2HADH), wild type (H206), SEQ ID NO:1 (Lactobacillus delbrueckii, UniProt Q48534)
T1 construct: no tag mentioned
T1 sequence (Q48534 1-333): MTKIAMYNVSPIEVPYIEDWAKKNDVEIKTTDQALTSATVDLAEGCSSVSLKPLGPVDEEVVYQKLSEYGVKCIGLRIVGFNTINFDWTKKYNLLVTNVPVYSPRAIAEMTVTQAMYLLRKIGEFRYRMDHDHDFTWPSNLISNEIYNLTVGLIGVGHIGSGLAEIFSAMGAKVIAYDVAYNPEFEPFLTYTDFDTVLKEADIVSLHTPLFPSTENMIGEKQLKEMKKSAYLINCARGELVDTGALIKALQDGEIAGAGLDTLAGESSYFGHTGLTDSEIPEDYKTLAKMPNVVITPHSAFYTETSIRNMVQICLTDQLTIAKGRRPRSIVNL
Assay: Steady-state kinetics of 2-keto acid reduction, followed by NADH oxidation
Format: biochemical
Settings: stopped flow, read-out: Ki KIC
Description: Since 1950, a number of workers have investigated the reduction of 2-oxo carboxylic acids catalysed by R-hydroxy acid dehydrogenases. For these studies, enzymes isolated from a variety of bacte rial sources have bee n employed. For a given 2-oxo acid, a given enzyme activity may be examined by UV spectroscopy and quantified with the Michaelis constant, Km, and the catalytic turnover, kcat.
The two compartment model for the binding pocket of the enzyme is illustrated in accompanying FIG. 1.
The substrate specificity of the purified enzyme was established by following the kinetics of reduction of a variety of 2-ketoacids (see Table 2 above).
(The steady-state kinetic constants of LB2HADH and H206Q in Table 6 below were obtained using standard stopped flow measurements.)

CC(C)CC(=O)C(=O)O [ketoisocaproate, 4-methyl-2-oxo-pentanoic acid]
Ki (pH 5.0): 110 µM
Ki (pH 6.5): 1100 µM
